Experimental data reported in patent publication US10487110B2, “Stabilized compounds having secondary structure motifs” (President and Fellows of Harvard College, priority 1999, dated 2019).

System: trypsin
Assay: Peptide trypsin digest (cleavage rate constants)
Format: in vitro ADME
Conditions: compared to the unmodified control peptide
Method: Peptide trypsin digest: A typical peptide trypsin digest experiment was performed by adding 5 μL of a 20× trypsin solution in 1 mM HCl to a 100 μL solution of peptide at 9 μM in 10% EtOH in 50 mM Tris at pH 8.3. The reaction was allowed to proceed at room temperature for 30 min at which time it was quenched by adding 100 μL of a 1% trifluoroacetic acid solution and frozen on dry ice. The sample was then thawed and injected into a reverse phase HPLC on a C18 column for quantitation at 280 nm. The cleavage rate constants were obtained by performing the digest experiments at multiple trypsin concentrations and fitting to a kinetic model that is first order in both enzyme and substrate concentration.

Q: How did the “stabilization toward trypsin digestion / decrease of cleavage rate versus unmodified control peptide” value turn out when “Ri,i+7S(11): Ac-EWAEyAAAKFLzAHA-NH2 (SEQ ID NO: 2), (y,z) = (R-13,S-16), 11 carbon crosslink” was run?
A: Its value is 41 fold.
